Conditions: one cycle = 21 days

SMILES	median number of treatment cycles able to be given to patients [treatment cycles]
CC[C@@]1(O)C(=O)OCc2c1cc1n(c2=O)Cc2c-1nc1ccccc1c2CC[Si](C)(C)C [Karenitecin, (4S)-4-ethyl-4-hydroxy-11-[2-(trimethylsilyl)ethyl]-1H-pyrano[3′:4′:6,7]indolizino[1,2-b]quinoline-3,14(4H,12H)-dione]	6.0
CC[C@@]1(O)C(=O)OCc2c1cc1n(c2=O)Cc2cc3c(CN(C)C)c(O)ccc3nc2-1 [Topotecan, reference compound]	5.0

Source: patent publication US10413538B2, “Administration of karenitecin for the treatment of platinum and/or taxane chemotherapy-resistant or -refractory advanced ovarian cancer” (priority 2013, dated 2019)
